In the supplement of paper PMC5355238:
Counter-ions that a name gives are not always drawn. The list shows a part of the results. Most entries show no effect beyond the scatter of the controls.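 Using flow cytometry, the assay measures the median γH2AX antibody signal in S-phase Reh cells (a human leukemia line). Each score is the number of standard deviations from the median difference of paired plate sets. Candidate hits scored above 2.5; compounds scoring below -2 lowered MK1775-induced damage.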

These molecules were tested on Reh (assay: Z' of S-phase gammaH2AX difference (drug + MK1775 minus drug alone) (Z-score); higher = stronger synergistic S-phase DNA damage with MK1775). Conditions: MK1775 concentration 400 nM; first compound 10 µM; 4 h.

Compound	Z' of S-phase gammaH2AX difference (Z-score)
Cn1cnc2c1c(=O)[nH]c(=O)n2C [Theobromine] + C=CCn1c(=O)c2cnc(Nc3ccc(N4CCN(C)CC4)cc3)nc2n1-c1cccc(C(C)(C)O)n1 [MK1775]	inactive: 0.427
CO[C@H]1/C=C\C=C(/C)C(=O)NC2=CC(=O)C(NCCN(C)C)=C(C[C@@H](C)C[C@H](OC)[C@H](O)[C@@H](C)/C=C(\C)[C@@H]1OC(N)=O)C2=O [17-DMAG HCl (Alvespimycin)] + C=CCn1c(=O)c2cnc(Nc3ccc(N4CCN(C)CC4)cc3)nc2n1-c1cccc(C(C)(C)O)n1 [MK1775]	inactive: 0.273
NC/C=C/C(=O)O [(E)-4-amino-2-butenoic acid] + C=CCn1c(=O)c2cnc(Nc3ccc(N4CCN(C)CC4)cc3)nc2n1-c1cccc(C(C)(C)O)n1 [MK1775]	inactive: 0.103
CCN(CC)CCOC(=O)c1cc(Cl)c(N)cc1OC [SDZ-205,557 hydrochloride] + C=CCn1c(=O)c2cnc(Nc3ccc(N4CCN(C)CC4)cc3)nc2n1-c1cccc(C(C)(C)O)n1 [MK1775]	inactive: -0.39
CC(=O)N[C@@H](Cc1c[nH]c2ccccc12)C(=O)OCc1cc(C(F)(F)F)cc(C(F)(F)F)c1 + C=CCn1c(=O)c2cnc(Nc3ccc(N4CCN(C)CC4)cc3)nc2n1-c1cccc(C(C)(C)O)n1 [MK1775]	inactive: -0.114
CCN(c1nc(N)c(C(=O)NC(=N)N)nc1Cl)C(C)C [5-(N-Ethyl-N-isopropyl)amiloride] + C=CCn1c(=O)c2cnc(Nc3ccc(N4CCN(C)CC4)cc3)nc2n1-c1cccc(C(C)(C)O)n1 [MK1775]	inactive: 0.835
O=C(O)Cc1c[nH]c2ccc(O)cc12 [5-Hydroxyindolacetic acid] + C=CCn1c(=O)c2cnc(Nc3ccc(N4CCN(C)CC4)cc3)nc2n1-c1cccc(C(C)(C)O)n1 [MK1775]	inactive: -1.08
CN(C)CCC=C1c2ccccc2COc2ccccc21 [Doxepin hydrochloride] + C=CCn1c(=O)c2cnc(Nc3ccc(N4CCN(C)CC4)cc3)nc2n1-c1cccc(C(C)(C)O)n1 [MK1775]	inactive: 0.658
CC(C)[N+](C)(CCOC(=O)C1c2ccccc2Oc2ccccc21)C(C)C [Propantheline bromide] + C=CCn1c(=O)c2cnc(Nc3ccc(N4CCN(C)CC4)cc3)nc2n1-c1cccc(C(C)(C)O)n1 [MK1775]	inactive: -0.252
C[S+]([O-])c1ccc(-c2nc(-c3ccc(F)cc3)c(-c3ccncc3)[nH]2)cc1 (stereo unspecified) + C=CCn1c(=O)c2cnc(Nc3ccc(N4CCN(C)CC4)cc3)nc2n1-c1cccc(C(C)(C)O)n1 [MK1775]	inactive: 0.153
NC[C@@H]1O[C@H](O[C@H]2[C@@H](O)[C@H](O[C@@H]3[C@@H](O)[C@H](N)C[C@H](N)[C@H]3O[C@H]3O[C@H](CO)[C@@H](O)[C@H](O)[C@H]3N)O[C@@H]2CO)[C@H](N)[C@@H](O)[C@@H]1O [Paromomycin sulfate] + C=CCn1c(=O)c2cnc(Nc3ccc(N4CCN(C)CC4)cc3)nc2n1-c1cccc(C(C)(C)O)n1 [MK1775]	inactive: 0.5
CC[C@]1(O)C[C@H]2CN(CCc3c([nH]c4ccccc34)[C@@](C(=O)OC)(c3cc4c(cc3OC)N(C=O)[C@H]3[C@@](O)(C(=O)OC)[C@H](OC(C)=O)[C@]5(CC)C=CCN6CC[C@]43[C@@H]65)C2)C1 [Vincristine] + C=CCn1c(=O)c2cnc(Nc3ccc(N4CCN(C)CC4)cc3)nc2n1-c1cccc(C(C)(C)O)n1 [MK1775]	inactive: -0.0288
CC[C@]1(O)C[C@H]2CN(CCc3c([nH]c4ccccc34)[C@@](C(=O)OC)(c3cc4c(cc3OC)N(C=O)[C@H]3[C@@](O)(C(=O)OC)[C@H](OC(C)=O)[C@]5(CC)C=CCN6CC[C@]43[C@@H]65)C2)C1 [Vincristine sulfate] + C=CCn1c(=O)c2cnc(Nc3ccc(N4CCN(C)CC4)cc3)nc2n1-c1cccc(C(C)(C)O)n1 [MK1775]	inactive: 0.00932
CCOc1ccc(Nc2nc(-c3c(C)nc4ccccn34)cs2)cc1 + C=CCn1c(=O)c2cnc(Nc3ccc(N4CCN(C)CC4)cc3)nc2n1-c1cccc(C(C)(C)O)n1 [MK1775]	inactive: -0.387
CN[C@@H](C)C(=O)N[C@H]1CN(C(=O)CC(C)C)CC[C@H]2CC[C@@H](C(=O)NC(c3ccccc3)c3ccccc3)N2C1=O + C=CCn1c(=O)c2cnc(Nc3ccc(N4CCN(C)CC4)cc3)nc2n1-c1cccc(C(C)(C)O)n1 [MK1775]	inactive: 0.755
COc1ccccc1N1CCN(CCCCN2C(=O)c3ccccc3C2=O)CC1 [NAN-190 hydrobromide] + C=CCn1c(=O)c2cnc(Nc3ccc(N4CCN(C)CC4)cc3)nc2n1-c1cccc(C(C)(C)O)n1 [MK1775]	inactive: -0.0582
Cc1cccc(C)c1OCC(C)N (stereo unspecified) [Mexiletene hydrochloride] + C=CCn1c(=O)c2cnc(Nc3ccc(N4CCN(C)CC4)cc3)nc2n1-c1cccc(C(C)(C)O)n1 [MK1775]	inactive: -0.0873
CCN(CC)CCNC(=O)c1c(C)[nH]c(/C=C2\C(=O)Nc3ccc(F)cc32)c1C [Sunitinib Malate (Sutent)] + C=CCn1c(=O)c2cnc(Nc3ccc(N4CCN(C)CC4)cc3)nc2n1-c1cccc(C(C)(C)O)n1 [MK1775]	inactive: -0.909
COc1ccc(/C=C/C(=O)Nc2ccccc2C(=O)O)cc1OC [Tranilast] + C=CCn1c(=O)c2cnc(Nc3ccc(N4CCN(C)CC4)cc3)nc2n1-c1cccc(C(C)(C)O)n1 [MK1775]	inactive: -1.41
Oc1ccc(/C=C/c2cc(O)cc(O)c2)cc1 [Resveratrol] + C=CCn1c(=O)c2cnc(Nc3ccc(N4CCN(C)CC4)cc3)nc2n1-c1cccc(C(C)(C)O)n1 [MK1775]	inactive: -0.374
CCOc1cc2ncc(C#N)c(Nc3ccc(F)c(Cl)c3)c2cc1NC(=O)/C=C/CN(C)C [Pelitinib (EKB-569)] + C=CCn1c(=O)c2cnc(Nc3ccc(N4CCN(C)CC4)cc3)nc2n1-c1cccc(C(C)(C)O)n1 [MK1775]	inactive: 1.14

2 consecutive entries already listed, quoted:
Compound	Z' of S-phase gammaH2AX difference (Z-score)
COc1ccccc1N1CCN(CCCCN2C(=O)c3ccccc3C2=O)CC1 [NAN-190 hydrobromide] + C=CCn1c(=O)c2cnc(Nc3ccc(N4CCN(C)CC4)cc3)nc2n1-c1cccc(C(C)(C)O)n1 [MK1775]	inactive: -0.0582
Cc1cccc(C)c1OCC(C)N (stereo unspecified) [Mexiletene hydrochloride] + C=CCn1c(=O)c2cnc(Nc3ccc(N4CCN(C)CC4)cc3)nc2n1-c1cccc(C(C)(C)O)n1 [MK1775]	inactive: -0.0873
